Molecules are shown by their SMILES. The match of structure and compound is tentative. Bounds are passed on as bounds.

Amino acid sequences for entries named in this document (tags omitted).
UniProt P37288, whole entry: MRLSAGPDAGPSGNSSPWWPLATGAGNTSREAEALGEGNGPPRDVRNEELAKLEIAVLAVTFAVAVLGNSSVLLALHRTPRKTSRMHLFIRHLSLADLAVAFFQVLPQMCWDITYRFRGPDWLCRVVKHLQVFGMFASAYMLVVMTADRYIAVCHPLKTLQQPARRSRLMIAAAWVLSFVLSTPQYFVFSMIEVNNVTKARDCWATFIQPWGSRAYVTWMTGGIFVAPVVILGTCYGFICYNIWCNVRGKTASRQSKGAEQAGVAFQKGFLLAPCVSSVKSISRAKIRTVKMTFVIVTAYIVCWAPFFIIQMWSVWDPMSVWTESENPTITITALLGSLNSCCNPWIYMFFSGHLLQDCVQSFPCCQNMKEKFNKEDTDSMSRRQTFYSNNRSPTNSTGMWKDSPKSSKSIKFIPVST
UniProt P30559, whole entry: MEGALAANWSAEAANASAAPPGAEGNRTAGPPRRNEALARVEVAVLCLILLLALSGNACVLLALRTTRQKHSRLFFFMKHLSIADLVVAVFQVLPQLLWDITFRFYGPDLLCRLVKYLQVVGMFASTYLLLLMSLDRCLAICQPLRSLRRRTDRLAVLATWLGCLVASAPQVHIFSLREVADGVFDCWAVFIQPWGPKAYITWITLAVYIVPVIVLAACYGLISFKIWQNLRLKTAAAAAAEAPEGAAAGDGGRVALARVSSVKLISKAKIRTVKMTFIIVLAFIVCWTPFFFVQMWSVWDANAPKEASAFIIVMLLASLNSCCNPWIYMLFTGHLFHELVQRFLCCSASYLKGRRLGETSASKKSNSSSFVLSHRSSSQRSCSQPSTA

Data set [1] deals with human Arginine Vasopressin Receptor 1a (AVPR1a) (Homo sapiens (Human), UniProt P37288). Kind of data set: Vasopressin V1A receptor antagonist assay (AVP-evoked calcium, FLIPR, CHO-AVPR1a cells). The format is cell-based. The conditions noted are these: read-out: V1a IC50.
Data set [2] deals with human Oxytocin Receptor (hOTR) (Homo sapiens (Human), UniProt P30559). Kind of data set: Oxytocin receptor antagonist assay (oxytocin-evoked calcium, FLIPR, CHEM-1-hOTR cells). The conditions noted are these: read-out: OT IC50.
A further data set deals with MDR1-MDCK cells. Kind of data set: MDR1-MDCK effective efflux assay (Transwell, 10 μM, 1 hour), MDR1-MDCK cells. The conditions noted are these: apical to basolateral (A>B).
For data set [3], the system named is wild-type (WT) MDCK cells. Kind of data set: MDR1-MDCK effective efflux assay (Transwell, 10 μM, 1 hour), wild-type MDCK cells. The conditions noted are these: apical to basolateral (A>B).

As usually defined, the IC50 is the concentration needed to halve the response being measured. Regarding `CC(C)OC(=O)N1Cc2cc(Cl)ccc2-n2c(nnc2C2CC3(C2)CN(c2ccccn2)C3)C1`, the results for the IC50 in data set [1] and in data set [2] were below 100 nM and 100 to 500 nM, respectively. The “Papp AB MDR1” value with MDR1-MDCK cells is “++++ ((++++) denotes >20 (10^-6 cm/sec))”. Further, the “Papp AB WT” value in data set [3] is “++++ ((++++) denotes >20 (10^-6 cm/sec))”.

The values are drawn from US11186577B2, “Vasopressin receptor antagonists and products and methods related thereto” (BlackThorn Therapeutics, Inc., priority 2017, dated 2021).
